{"sequences": {"note": "By UniProt entry, the sequences of proteins in these tests, tags left out. Where a name states a change or a piece, a line headed by the entry shows the natural chain unless it says otherwise. Residues count along the entry.", "UniProt S4R2P9, residues 31-928": "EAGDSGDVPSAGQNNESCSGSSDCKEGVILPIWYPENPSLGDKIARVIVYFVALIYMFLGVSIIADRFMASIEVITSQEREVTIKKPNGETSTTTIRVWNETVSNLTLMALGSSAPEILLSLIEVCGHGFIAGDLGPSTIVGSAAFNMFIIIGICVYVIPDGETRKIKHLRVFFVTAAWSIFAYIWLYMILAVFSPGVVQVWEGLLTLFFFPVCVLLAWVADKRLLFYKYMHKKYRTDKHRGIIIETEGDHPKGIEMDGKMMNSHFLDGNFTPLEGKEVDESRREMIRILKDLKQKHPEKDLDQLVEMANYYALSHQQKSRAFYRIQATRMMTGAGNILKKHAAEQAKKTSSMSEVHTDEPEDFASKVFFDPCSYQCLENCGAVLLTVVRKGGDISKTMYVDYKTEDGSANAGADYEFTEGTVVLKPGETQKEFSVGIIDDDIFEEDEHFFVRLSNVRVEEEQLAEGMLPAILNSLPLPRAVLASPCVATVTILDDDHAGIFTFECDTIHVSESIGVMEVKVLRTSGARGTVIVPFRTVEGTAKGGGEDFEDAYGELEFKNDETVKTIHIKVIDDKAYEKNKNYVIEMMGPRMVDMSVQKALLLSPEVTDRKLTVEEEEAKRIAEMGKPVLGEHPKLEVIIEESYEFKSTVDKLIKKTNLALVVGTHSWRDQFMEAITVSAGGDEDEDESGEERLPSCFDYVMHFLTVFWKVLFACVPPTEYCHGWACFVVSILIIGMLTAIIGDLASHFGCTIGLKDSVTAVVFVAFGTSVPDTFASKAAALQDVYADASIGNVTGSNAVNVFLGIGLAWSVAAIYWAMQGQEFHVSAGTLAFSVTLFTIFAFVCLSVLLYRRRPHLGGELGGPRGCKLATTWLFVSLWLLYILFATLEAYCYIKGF"}, "source": "paper PMC7093646", "molecules": {"B1": {"name": "ANO1 (Ca2+-activated Cl- channel encoded by Ano1) (protein, UniProt Q8BHY3 1-960)", "chain": "MRVPEKYSTLPAEDRSVHIVNICAIEDLGYLPSEGTLLNSLSVDPDAECKYGLYFRDGKRKVDYILVYHHKRASGSRTLARRGLQNDMVLGTRSVRQDQPLPGKGSPVDAGSPEVPMDYHEDDKRFRREEYEGNLLEAGLELENDEDTKIHGVGFVKIHAPWHVLCREAEFLKLKMPTKKVYHISETRGLLKTINSVLQKITDPIQPKVAEHRPQTTKRLSYPFSREKQHLFDLTDRDSFFDSKTRSTIVYEILKRTTCTKAKYSMGITSLLANGVYSAAYPLHDGDYEGDNVEFNDRKLLYEEWASYGVFYKYQPIDLVRKYFGEKVGLYFAWLGAYTQMLIPASIVGVIVFLYGCATVDENIPSMEMCDQRYNITMCPLCDKTCSYWKMSSACATARASHLFDNPATVFFSVFMALWAATFMEHWKRKQMRLNYRWDLTGFEEEEEAVKDHPRAEYEARVLEKSLRKESRNKETDKVKLTWRDRFPAYFTNLVSIIFMIAVTFAIVLGVIIYRISTAAALAMNSSPSVRSNIRVTVTATAVIINLVVIILLDEVYGCIARWLTKIEVPKTEKSFEERLTFKAFLLKFVNSYTPIFYVAFFKGRFVGRPGDYVYIFRSFRMEECAPGGCLMELCIQLSIIMLGKQLIQNNLFEIGIPKMKKFIRYLKLRRQSPSDREEYVKRKQRYEVDFNLEPFAGLTPEYMEMIIQFGFVTLFVASFPLAPLFALLNNIIEIRLDAKKFVTELRRPVAIRAKDIGIWYNILRGVGKLAVIINAFVISFTSDFIPRLVYLYMYSQNGTMHGFVNHTLSSFNVSDFQNGTAPNDPLDLGYEVQICRYKDYREPPWSEHKYDISKDFWAVLAARLAFVIVFQNLVMFMSDFVDWVIPDIPKDISQQIHKEKVLMVELFMREEQGKQQLLDTWMEKEKPRDVPCNNHSPTTHPEAGDGSPVPSYEYHGDAL"}}, "key": {"[1]": {"target": "T1, ANO1 (Ca2+-activated Cl- channel encoded by Ano1) (mouse (endogenous in small intestine muscle and ICC)) (UniProt Q8BHY3)", "T1 sequence": "B1 chain", "assay": "co-IP; membrane fraction (500 ug) of mouse small intestine smooth muscle in IP/lysis buffer (50 mM Tris-HCl pH 8, 0.5% NP40); anti-ANO1 or anti-NCX3 antibody crosslinked to Protein-A/G magnetic beads, overnight at 4°C; elution with low pH buffer; detection by ProteinSimple Wes; non-immune rabbit IgG as control"}, "[2]": {"target": "NCX3 (Na+/Ca2+ exchanger 3, encoded by Slc8a3) (mouse (endogenous in small intestine muscle and ICC)) (UniProt S4R2P9)", "assay": "co-IP; membrane fraction (500 ug) of mouse small intestine smooth muscle in IP/lysis buffer (50 mM Tris-HCl pH 8, 0.5% NP40); anti-ANO1 or anti-NCX3 antibody crosslinked to Protein-A/G magnetic beads, overnight at 4°C; elution with low pH buffer; detection by ProteinSimple Wes; non-immune rabbit IgG as control"}}, "note": "These are yes or no findings as the source states them, for the method shown. Binding seen in cells or lysates may run through a third protein. Some entries that bind do so weakly or less than the wild type.", "data": [{"molecule": "NCX3 (Na+/Ca2+ exchanger 3, encoded by Slc8a3) (from UniProt S4R2P9-1 31-928)", "values": [{"measurement": "binding", "setting": "[1]", "result": "binds"}]}, {"molecule": "B1", "values": [{"measurement": "binding", "setting": "[2]", "result": "binds"}]}]}
